Results from patent publication US12728170B2 (MC SAF, priority 2020, dated 2026).

Key:
[1] = general procedure: solution-phase peptide synthesis; HATU / 2,6-lutidine; EEDQ / DIPEA; details: TFA salt; for conjugation yield: conjugation step; for step yield: late stage modification step
[2] = Denaturing HRMS analysis according to method 2 (MAR per species); assay type: physicochemical

Substance	conjugation yield [1] [%]	step yield [1] [%]	further results
MMAE 3-(2,6-bis(bromomethyl)isonicotinamido)-2-((2,6bis(bromomethyl)isonicotinamido)methyl)propamido-N-hexanamide-valine-citrulline-p-aminobenzoyl carbamate	63	–	–
Example 34: Panitumumab—Compound (36) Conjugate; bioconjugation reaction 1, reducing agent 1 (10.6 eq), compound (36) 18.0 eq	–	–	Average MAR, LH ([2]; LH species): 1.00; Intensity (%) LH, MAR 1 ([2]; LH species, MAR 1): 100%; Average MAR, LHHL ([2]; LHHL species): 0.98; Intensity (%) LHHL, MAR 0 ([2]; LHHL species, MAR 0): 2%; Intensity (%) LHHL, MAR 1 ([2]; LHHL species, MAR 1): 98%
MMAE 6-azidohexanamido-N-hexanamide-valine-citrulline-p-aminobenzoyl carbamate	–	75	–
MMAE amine 3-[2-(2-aminoethoxy)ethoxy]-propanamido-valine-citrulline-p-aminobenzoyl carbamate, TFA salt	45	–	–
MMAE 6-aminohexanamide-valine-citrulline-p-aminobenzoyl carbamate, salt of TFA	–	76	–
MMAE 4-methyleteatrazinylphenoxy-3,6,9,12-tetraoxapentadecan-15-amide-valine-citrulline-p-aminobenzoyl carbamate	56	–	–
